Some of the results follow.
What follows are targets tested with COc1ccc(Cn2ccc3cc(C)c(C(=O)NO)cc32)cc1 (assay: dose-dependent thermal stabilisation call (2D-TPP, DLPTP, 10% FDR) (binary (1 = stabilised)); higher = stabilised by the compound). Details: system: HL-60 intact cells; concentration range 0.04-10 µM.
Protocol: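 2D thermal proteome profiling in intact HL-60 cells treated with BRD-3811 (0, 0.04, 0.29, 2, 10 uM) for 90 min at 37 C, then heated 3 min at one of 12 temperatures (42-63.9 C). Soluble protein was quantified by TMT10 MS. The value is the DLPTP call of the paper: dose-dependent thermal stabilisation over all temperatures at 10% FDR (F-test of a dose-response against a flat model); one experiment, one call per tested protein.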

Amino acid sequences for entries named in this document (tags omitted). A change or cut given only in a name is not applied to a line headed by its entry.
UniProt Q96A57: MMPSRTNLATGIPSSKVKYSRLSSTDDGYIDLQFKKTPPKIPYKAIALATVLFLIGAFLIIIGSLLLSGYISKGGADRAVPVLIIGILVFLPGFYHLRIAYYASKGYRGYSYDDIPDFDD
UniProt Q9H6E4: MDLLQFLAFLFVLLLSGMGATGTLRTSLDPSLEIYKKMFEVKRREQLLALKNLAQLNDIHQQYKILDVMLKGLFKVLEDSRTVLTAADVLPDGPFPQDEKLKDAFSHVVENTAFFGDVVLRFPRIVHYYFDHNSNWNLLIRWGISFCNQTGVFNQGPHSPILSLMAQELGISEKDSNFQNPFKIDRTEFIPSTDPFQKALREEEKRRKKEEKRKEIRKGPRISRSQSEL
UniProt Q9NXE8: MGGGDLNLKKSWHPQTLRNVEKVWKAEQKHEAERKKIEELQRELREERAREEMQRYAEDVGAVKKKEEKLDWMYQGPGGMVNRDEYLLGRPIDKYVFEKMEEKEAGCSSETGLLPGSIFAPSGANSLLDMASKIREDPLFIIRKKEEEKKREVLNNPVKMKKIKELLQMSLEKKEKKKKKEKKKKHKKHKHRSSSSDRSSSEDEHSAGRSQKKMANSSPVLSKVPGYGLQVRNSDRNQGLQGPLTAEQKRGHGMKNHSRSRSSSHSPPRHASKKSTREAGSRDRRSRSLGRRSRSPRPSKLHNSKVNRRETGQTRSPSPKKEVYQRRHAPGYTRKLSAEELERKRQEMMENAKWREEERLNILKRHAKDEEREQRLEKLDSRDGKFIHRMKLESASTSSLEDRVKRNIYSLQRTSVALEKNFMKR
UniProt Q6NXR4: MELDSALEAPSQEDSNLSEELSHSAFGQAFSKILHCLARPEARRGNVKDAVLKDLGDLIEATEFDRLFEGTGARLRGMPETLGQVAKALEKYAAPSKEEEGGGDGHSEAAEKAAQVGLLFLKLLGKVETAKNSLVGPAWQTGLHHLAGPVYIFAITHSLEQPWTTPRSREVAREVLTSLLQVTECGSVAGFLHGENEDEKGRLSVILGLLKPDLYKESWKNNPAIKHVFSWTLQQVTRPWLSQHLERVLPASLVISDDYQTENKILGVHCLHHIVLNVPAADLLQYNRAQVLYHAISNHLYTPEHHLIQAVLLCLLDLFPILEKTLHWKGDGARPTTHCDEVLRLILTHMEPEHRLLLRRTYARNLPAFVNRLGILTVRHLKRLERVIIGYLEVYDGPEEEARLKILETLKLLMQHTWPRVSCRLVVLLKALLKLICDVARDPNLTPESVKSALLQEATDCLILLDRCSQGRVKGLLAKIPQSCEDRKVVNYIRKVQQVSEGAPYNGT
UniProt Q96EU6: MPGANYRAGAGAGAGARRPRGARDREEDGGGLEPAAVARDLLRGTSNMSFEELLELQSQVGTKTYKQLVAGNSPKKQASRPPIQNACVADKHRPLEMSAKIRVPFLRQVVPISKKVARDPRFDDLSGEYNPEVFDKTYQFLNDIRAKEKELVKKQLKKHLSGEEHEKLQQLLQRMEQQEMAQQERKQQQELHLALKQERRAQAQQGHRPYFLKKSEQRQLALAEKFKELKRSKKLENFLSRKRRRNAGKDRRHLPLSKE
UniProt Q9NX38: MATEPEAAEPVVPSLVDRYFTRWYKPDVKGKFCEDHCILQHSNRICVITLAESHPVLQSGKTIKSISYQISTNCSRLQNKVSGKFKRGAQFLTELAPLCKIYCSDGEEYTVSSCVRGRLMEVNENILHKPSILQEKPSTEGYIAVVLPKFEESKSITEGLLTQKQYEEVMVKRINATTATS
UniProt Q92851: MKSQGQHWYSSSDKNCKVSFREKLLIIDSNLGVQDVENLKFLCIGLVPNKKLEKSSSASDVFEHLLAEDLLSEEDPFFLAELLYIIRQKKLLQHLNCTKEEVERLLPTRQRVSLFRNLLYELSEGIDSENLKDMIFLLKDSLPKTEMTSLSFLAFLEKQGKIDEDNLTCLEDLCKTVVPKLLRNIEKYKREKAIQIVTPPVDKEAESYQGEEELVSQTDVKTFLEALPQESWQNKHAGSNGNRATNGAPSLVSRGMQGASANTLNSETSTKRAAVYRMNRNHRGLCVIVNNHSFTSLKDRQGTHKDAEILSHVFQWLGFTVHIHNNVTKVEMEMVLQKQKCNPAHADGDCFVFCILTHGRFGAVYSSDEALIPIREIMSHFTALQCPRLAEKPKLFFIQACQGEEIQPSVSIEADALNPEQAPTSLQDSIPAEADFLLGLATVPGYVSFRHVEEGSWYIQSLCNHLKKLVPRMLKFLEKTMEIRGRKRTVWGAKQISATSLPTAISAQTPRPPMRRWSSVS
UniProt Q96EU7: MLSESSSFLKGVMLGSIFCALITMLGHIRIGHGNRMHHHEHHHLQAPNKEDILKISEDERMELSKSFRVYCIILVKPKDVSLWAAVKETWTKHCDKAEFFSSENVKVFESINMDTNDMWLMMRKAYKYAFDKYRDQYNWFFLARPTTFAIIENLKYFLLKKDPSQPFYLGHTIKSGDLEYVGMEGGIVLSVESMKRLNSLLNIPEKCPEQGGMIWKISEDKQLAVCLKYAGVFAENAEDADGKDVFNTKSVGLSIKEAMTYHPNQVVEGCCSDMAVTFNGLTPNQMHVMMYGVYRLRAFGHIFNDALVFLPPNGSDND
UniProt P51946: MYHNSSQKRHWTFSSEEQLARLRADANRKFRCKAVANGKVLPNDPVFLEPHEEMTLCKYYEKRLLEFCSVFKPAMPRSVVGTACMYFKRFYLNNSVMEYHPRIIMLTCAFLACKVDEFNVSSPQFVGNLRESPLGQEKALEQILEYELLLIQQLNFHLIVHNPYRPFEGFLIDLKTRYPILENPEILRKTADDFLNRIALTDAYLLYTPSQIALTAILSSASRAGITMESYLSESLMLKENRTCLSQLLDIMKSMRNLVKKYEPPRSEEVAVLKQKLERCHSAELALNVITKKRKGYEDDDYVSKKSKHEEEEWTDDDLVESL
UniProt Q8IWP9: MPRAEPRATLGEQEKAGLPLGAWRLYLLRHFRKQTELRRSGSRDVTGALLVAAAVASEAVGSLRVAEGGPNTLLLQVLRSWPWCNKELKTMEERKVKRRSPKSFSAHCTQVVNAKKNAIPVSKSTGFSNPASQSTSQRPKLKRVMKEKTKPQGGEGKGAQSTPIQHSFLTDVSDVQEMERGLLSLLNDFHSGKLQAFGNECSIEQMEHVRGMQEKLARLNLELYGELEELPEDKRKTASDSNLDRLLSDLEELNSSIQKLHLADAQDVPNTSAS
UniProt Q9NPL8: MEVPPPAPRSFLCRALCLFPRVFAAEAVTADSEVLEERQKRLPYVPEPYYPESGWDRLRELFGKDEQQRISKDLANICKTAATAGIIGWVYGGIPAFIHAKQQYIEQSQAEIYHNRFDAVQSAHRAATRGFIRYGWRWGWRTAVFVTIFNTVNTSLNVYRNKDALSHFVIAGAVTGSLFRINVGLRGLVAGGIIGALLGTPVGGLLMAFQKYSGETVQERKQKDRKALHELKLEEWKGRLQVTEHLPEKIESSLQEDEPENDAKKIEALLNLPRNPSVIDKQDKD
UniProt Q9NWD8: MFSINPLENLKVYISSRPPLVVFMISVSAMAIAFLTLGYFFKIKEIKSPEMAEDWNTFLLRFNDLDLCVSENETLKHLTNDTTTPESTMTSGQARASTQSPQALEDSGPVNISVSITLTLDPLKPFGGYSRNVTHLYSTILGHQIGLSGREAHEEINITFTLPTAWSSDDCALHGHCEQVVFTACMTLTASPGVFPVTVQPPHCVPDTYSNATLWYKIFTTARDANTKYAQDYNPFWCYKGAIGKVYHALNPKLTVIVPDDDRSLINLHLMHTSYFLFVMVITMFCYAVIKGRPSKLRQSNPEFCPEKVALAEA
UniProt O75909: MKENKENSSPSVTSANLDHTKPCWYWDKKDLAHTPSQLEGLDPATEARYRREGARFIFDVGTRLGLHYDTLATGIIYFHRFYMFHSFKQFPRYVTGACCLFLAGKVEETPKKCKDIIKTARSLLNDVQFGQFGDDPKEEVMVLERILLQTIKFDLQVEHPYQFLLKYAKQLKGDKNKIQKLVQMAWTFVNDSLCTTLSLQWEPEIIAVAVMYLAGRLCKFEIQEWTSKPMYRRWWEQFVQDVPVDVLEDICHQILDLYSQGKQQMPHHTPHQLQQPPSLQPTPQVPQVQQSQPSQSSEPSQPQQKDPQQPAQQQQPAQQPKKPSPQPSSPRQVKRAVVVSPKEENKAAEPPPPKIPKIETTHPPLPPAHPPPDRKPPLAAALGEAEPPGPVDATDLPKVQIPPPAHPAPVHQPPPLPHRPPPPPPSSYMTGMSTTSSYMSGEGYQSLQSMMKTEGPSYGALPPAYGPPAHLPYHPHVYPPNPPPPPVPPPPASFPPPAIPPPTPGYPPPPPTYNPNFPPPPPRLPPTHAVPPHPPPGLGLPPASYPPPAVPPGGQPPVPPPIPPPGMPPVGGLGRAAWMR
UniProt Q5JPI3: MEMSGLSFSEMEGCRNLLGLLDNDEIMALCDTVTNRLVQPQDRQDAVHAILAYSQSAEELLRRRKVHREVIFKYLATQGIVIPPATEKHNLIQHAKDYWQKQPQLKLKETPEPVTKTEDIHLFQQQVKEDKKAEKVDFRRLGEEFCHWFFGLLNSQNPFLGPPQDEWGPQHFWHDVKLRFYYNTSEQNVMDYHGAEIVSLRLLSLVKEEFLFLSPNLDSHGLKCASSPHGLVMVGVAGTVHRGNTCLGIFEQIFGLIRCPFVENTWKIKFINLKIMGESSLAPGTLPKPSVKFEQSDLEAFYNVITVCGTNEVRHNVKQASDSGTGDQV
UniProt Q6UWU4: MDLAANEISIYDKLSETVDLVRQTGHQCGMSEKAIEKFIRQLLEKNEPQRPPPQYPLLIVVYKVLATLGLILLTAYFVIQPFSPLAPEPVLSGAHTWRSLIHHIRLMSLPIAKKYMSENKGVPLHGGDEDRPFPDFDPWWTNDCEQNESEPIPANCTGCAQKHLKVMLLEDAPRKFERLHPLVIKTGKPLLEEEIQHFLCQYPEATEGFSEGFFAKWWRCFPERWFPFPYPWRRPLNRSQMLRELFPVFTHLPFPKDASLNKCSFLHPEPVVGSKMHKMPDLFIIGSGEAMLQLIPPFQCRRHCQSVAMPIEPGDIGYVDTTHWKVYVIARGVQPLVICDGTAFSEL
UniProt P31944: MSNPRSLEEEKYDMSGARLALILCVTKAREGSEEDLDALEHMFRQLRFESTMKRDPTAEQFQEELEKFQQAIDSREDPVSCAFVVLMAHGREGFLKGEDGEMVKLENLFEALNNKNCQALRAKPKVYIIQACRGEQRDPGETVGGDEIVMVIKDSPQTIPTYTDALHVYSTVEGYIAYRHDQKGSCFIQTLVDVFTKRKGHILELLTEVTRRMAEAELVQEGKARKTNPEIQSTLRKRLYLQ
UniProt Q9NSI2: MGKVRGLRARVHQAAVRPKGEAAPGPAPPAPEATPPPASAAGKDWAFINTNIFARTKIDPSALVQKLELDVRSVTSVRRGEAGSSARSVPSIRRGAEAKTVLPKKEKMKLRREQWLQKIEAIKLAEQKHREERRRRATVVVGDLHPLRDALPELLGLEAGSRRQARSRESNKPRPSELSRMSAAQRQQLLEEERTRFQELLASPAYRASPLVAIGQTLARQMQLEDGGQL
UniProt Q8IWD4: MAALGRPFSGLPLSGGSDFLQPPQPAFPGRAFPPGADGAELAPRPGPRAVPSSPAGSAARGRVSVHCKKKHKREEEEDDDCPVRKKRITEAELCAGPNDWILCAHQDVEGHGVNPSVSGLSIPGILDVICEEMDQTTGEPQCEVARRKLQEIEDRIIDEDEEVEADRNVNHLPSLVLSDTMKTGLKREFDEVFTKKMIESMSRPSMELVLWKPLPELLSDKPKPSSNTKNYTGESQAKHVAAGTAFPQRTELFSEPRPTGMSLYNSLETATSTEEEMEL
UniProt Q8N8J7: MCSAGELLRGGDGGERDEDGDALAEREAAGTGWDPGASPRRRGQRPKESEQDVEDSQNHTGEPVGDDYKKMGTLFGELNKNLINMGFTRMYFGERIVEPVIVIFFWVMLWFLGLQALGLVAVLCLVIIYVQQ
UniProt Q8ND76: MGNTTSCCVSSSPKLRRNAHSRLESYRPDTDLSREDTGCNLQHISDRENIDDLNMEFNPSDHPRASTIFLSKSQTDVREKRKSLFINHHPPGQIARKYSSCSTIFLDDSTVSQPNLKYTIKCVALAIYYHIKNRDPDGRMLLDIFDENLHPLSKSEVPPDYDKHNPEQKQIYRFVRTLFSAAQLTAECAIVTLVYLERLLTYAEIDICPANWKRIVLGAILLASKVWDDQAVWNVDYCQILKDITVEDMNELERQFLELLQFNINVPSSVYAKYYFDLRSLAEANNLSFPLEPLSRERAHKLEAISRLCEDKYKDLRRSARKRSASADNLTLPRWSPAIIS
UniProt Q330K2: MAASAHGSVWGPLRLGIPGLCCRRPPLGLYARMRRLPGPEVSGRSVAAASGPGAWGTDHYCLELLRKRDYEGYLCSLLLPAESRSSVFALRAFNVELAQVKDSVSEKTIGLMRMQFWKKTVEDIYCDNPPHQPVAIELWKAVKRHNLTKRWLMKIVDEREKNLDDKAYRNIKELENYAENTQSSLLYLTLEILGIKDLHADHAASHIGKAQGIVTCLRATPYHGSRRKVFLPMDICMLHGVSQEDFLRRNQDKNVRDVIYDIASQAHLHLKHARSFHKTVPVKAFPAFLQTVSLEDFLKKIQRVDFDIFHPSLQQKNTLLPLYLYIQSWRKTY

Target | dose-dependent thermal stabilisation call
C9ORF91 (UniProt Q5VZI3) | inactive: 0
C20ORF30 (UniProt Q96A57) | inactive: 0
C3ORF39 (UniProt Q8NAT1) | inactive: 0
CCDC134 (UniProt Q9H6E4) | inactive: 0
C1QBP (UniProt Q07021) | inactive: 0
CCDC49 (UniProt Q9NXE8) | inactive: 0
CCDC56 (UniProt Q9Y2R0) | inactive: 0
CCT8 (UniProt P50990) | inactive: 0
C8ORF41 (UniProt Q6NXR4) | inactive: 0
C6ORF153 (UniProt Q96EU6) | inactive: 0
C9ORF41 (UniProt Q8N4J0) | inactive: 0
C7ORF30 (UniProt Q96EH3) | inactive: 0
C9ORF6 (UniProt Q9NX38) | inactive: 0
C2ORF47 (UniProt Q8WWC4) | inactive: 0
CASP6 (UniProt P55212) | inactive: 0
C6ORF108 (UniProt O43598) | inactive: 0
CBX5 (UniProt P45973) | inactive: 0
CASP10 (UniProt Q92851) | inactive: 0
C1GALT1C1 (UniProt Q96EU7) | inactive: 0
CCNH (UniProt P51946) | inactive: 0

Part of the list above, with tabs:
Target	dose-dependent thermal stabilisation call
CCDC134 (UniProt Q9H6E4)	inactive: 0
C6ORF153 (UniProt Q96EU6)	inactive: 0

More results follow.

Target | dose-dependent thermal stabilisation call
CCDC28A (UniProt Q8IWP9) | inactive: 0
C3ORF1 (UniProt Q9NPL8) | inactive: 0
C7ORF42 (UniProt Q9NWD8) | inactive: 0
C1ORF131 (UniProt Q8NDD1) | inactive: 0
CCNK (UniProt O75909) | inactive: 0
C3ORF38 (UniProt Q5JPI3) | inactive: 0
C6ORF89 (UniProt Q6UWU4) | inactive: 0
CASP14 (UniProt P31944) | inactive: 0
C21ORF70 (UniProt Q9NSI2) | inactive: 0
CCNB2 (UniProt O95067) | inactive: 0
C3ORF31 (UniProt Q96BW9) | inactive: 0
CCDC117 (UniProt Q8IWD4) | inactive: 0
CCNA2 (UniProt P20248) | inactive: 0
CCDC43 (UniProt Q96MW1) | inactive: 0
C4ORF32 (UniProt Q8N8J7) | inactive: 0
C2ORF60 (UniProt A2RUC4) | inactive: 0
CCDC59 (UniProt Q9P031) | inactive: 0
CCAR1 (UniProt Q8IX12) | inactive: 0
CCNY (UniProt Q8ND76) | inactive: 0
C8ORF38 (UniProt Q330K2) | inactive: 0

From the supplement of paper PMC7666118
